# Where a name gives a salt, the structure may show the parent alone. Some of the results follow. Repeats are few or missing, and single values can be far off.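 Labelled rat cortical synaptosomes were engulfed by primary human fetal astrocytes. Engulfment equaled a red/green ratio, corrected for calcein live-cell signal and normalized to the plate median. Compounds were toxic when calcein dropped over 30%, and reduced phagocytosis when below 70% of the median above 5 µM.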
# Experiments:
# Human fetal astrocytes [1] = test: loss of total cells relative to no-compound high-control median (toxicity); higher = more toxic (fewer cells); conditions: 24 h
# Human fetal astrocytes [2] = test: synaptosome phagocytosis (pHrodo/calcein intensity ratio) relative to plate median of data wells; higher = more phagocytosis; conditions: 24 h
Compound,loss of total cells (Human fetal astrocytes [1]; 1.39 µM),loss of total cells (Human fetal astrocytes [1]; 2.78 µM),loss of total cells (Human fetal astrocytes [1]; 5.56 µM),loss of total cells (Human fetal astrocytes [1]; 11.11 µM),loss of total cells (Human fetal astrocytes [1]; 22.22 µM),synaptosome phagocytosis (Human fetal astrocytes [2]; 1.39 µM),synaptosome phagocytosis (Human fetal astrocytes [2]; 2.78 µM),synaptosome phagocytosis (Human fetal astrocytes [2]; 5.56 µM),synaptosome phagocytosis (Human fetal astrocytes [2]; 11.11 µM),synaptosome phagocytosis (Human fetal astrocytes [2]; 22.22 µM)
C=C(C)[C@H]1CN[C@H](C(=O)O)[C@H]1CC(=O)O,19.9%,18.4%,5.8%,-15.5%,21.2%,144%,120%,115%,95.6%,102%
C[C@H](N)[C@H](O)c1ccc(O)c(O)c1,6.2%,-4.4%,-7%,2%,0.3%,83.7%,89%,86.8%,96.1%,84%
O=C1C=C2C(=CCOC2O)O1 (stereo not given),27.1%,36.5%,33.3%,49.8%,56.1%,76.6%,40.8%,41.5%,23.3%,20.4%
C[C@]12CCC(=O)C=C1C=C[C@@H]1[C@@H]2CC[C@@]2(C)[C@H]1CC[C@@]2(O)CCC(=O)O,5%,-6.4%,-4.9%,-4.3%,28.3%,104%,86.6%,86.2%,126%,120%
Cc1ccc(O)cc1.Cc1cccc(O)c1.Cc1ccccc1O,10.4%,-28.8%,-22.3%,-6.6%,-5.2%,116%,124%,136%,136%,106%
CN[C@@H](C)[C@@H](O)c1ccccc1,2.7%,-4.4%,-28.6%,-2%,20.4%,92.4%,84.1%,110%,114%,95.4%
CCn1cc(C(=O)O)c(=O)c2cc3c(cc21)OCO3 [Oxolinic acid],-23.2%,-21%,-0.9%,-15.6%,13%,97.3%,81.4%,97.5%,90.5%,109%
CNc1ccccc1C(=O)O,-27.9%,-17%,0.7%,10.8%,17.8%,100%,109%,96.8%,123%,131%
C[C@@H]1CC[C@]2(NC1)O[C@H]1C[C@H]3[C@@H]4CC=C5C[C@@H](O)CC[C@]5(C)[C@H]4CC[C@]3(C)[C@H]1[C@@H]2C [Solasodine hydrochloride],11.2%,1.3%,0.8%,43.9%,3.3%,123%,125%,85.4%,123%,129%
CC(C)(O)[C@@H]1[C@H]2OC(=O)[C@@H]1[C@]1(O)C[C@H]3O[C@]34C(=O)O[C@H]2[C@]14C (relative stereo),-28.6%,-2.7%,-3.8%,0%,2.6%,133%,106%,80.8%,123%,89.3%
COC(=O)C(c1ccccc1)C1CCCCN1 (stereo not given),12.7%,-2.7%,21.4%,-3.2%,16.7%,129%,94.1%,158%,94.3%,103%
CC(=O)Oc1ccc(/C=C/c2cc(OC(C)=O)cc(OC(C)=O)c2)cc1,-8.2%,3.2%,1.5%,17.6%,19.3%,55.6%,88.9%,109%,68.9%,87.5%
C[C@]12CCC(=O)C=C1CCc1ccc(O)cc12,4.7%,8%,21.4%,31.6%,28.5%,112%,110%,95.7%,88.1%,147%
CC(C)[N+](C)(CCC(C(N)=O)(c1ccccc1)c1ccccc1)C(C)C,12.8%,-12.5%,-20.2%,14.7%,-27.7%,111%,111%,96.9%,88.9%,60.2%
C[C@H]1O[C@@H](O[C@H]2[C@@H](O)C[C@H](O[C@H]3[C@@H](O)C[C@H](O[C@H]4CC[C@@]5(C)[C@H](CC[C@@H]6[C@@H]5CC[C@]5(C)[C@@H](C7=CC(=O)OC7)[C@@H](O)C[C@]65O)C4)O[C@@H]3C)O[C@@H]2C)C[C@H](O)[C@@H]1O,11.2%,18.4%,18.1%,11.3%,-0.8%,39.1%,43.5%,38%,42.2%,58.7%
c1ccc(/N=N/c2ccccc2)cc1,6.1%,0.4%,10.1%,12.1%,0%,99.9%,77.2%,59.7%,116%,88.1%
CN[C@@H]1[C@@H](O)[C@@H](O[C@@H]2[C@@H](O)[C@H](O[C@H]3O[C@H](CN)CC[C@H]3N)[C@@H](N)C[C@H]2N)OC[C@]1(C)O.CN[C@@H]1[C@@H](O)[C@@H](O[C@@H]2[C@@H](O)[C@H](O[C@H]3O[C@H]([C@@H](C)N)CC[C@H]3N)[C@@H](N)C[C@H]2N)OC[C@]1(C)O.CN[C@@H]1[C@@H](O)[C@@H](O[C@@H]2[C@@H](O)[C@H](O[C@H]3O[C@H]([C@@H](C)NC)CC[C@H]3N)[C@@H](N)C[C@H]2N)OC[C@]1(C)O,0.3%,-29.5%,-4.2%,14.1%,10%,146%,97.9%,95.1%,105%,95.5%
NCC1(CC(=O)O)CCCCC1,-27.9%,8.6%,28.2%,-12.9%,14.4%,77.5%,109%,115%,85.6%,131%
C[C@]12C=CC(=O)C=C1CC[C@@H]1[C@@H]2CC[C@]2(C)C(=O)CC[C@@H]12,1.6%,-7.6%,-1.5%,2%,18.5%,151%,103%,109%,86.6%,122%
CN1[C@@H]2C[C@@H](OC(=O)[C@H](CO)c3ccccc3)C[C@H]1[C@@H]1O[C@@H]12,-12.4%,1.5%,-2.7%,-18%,1.1%,97.2%,103%,95.4%,102%,101%

# Quoted from the listing:
# Entry for NCC1(CC(=O)O)CCCCC1 under synaptosome phagocytosis (Human fetal astrocytes [2]; 2.78 µM): 109%
# Entry for COC(=O)C(c1ccccc1)C1CCCCN1 (stereo not given) under synaptosome phagocytosis (Human fetal astrocytes [2]; 2.78 µM): 94.1%

# Remaining list, next part

Compound,loss of total cells (Human fetal astrocytes [1]; 1.39 µM),loss of total cells (Human fetal astrocytes [1]; 2.78 µM),loss of total cells (Human fetal astrocytes [1]; 5.56 µM),loss of total cells (Human fetal astrocytes [1]; 11.11 µM),loss of total cells (Human fetal astrocytes [1]; 22.22 µM),synaptosome phagocytosis (Human fetal astrocytes [2]; 1.39 µM),synaptosome phagocytosis (Human fetal astrocytes [2]; 2.78 µM),synaptosome phagocytosis (Human fetal astrocytes [2]; 5.56 µM),synaptosome phagocytosis (Human fetal astrocytes [2]; 11.11 µM),synaptosome phagocytosis (Human fetal astrocytes [2]; 22.22 µM)
C=CCC1(C(C)CCC)C(=O)NC(=S)NC1=O (stereo not given),-15.6%,13.3%,-19.1%,13.5%,-6.3%,91.4%,139%,85.9%,92.3%,105%
CC[C@H]1/C=C/C=C/C[C@@H](C)[C@H](O)[C@@](C)(O)C(=O)[C@@H](C)[C@H](O)[C@@H](C)C(=O)[C@@H](C)[C@H](O)[C@@H](C)/C=C/C(=O)O[C@@H]2[C@H](C)[C@H](CC1)O[C@]1(CC[C@H](C)[C@H](C[C@@H](C)O)O1)[C@H]2C [OLIGOMYCIN (A shown)],6.6%,4.7%,11%,18.9%,23.7%,68.9%,99.9%,108%,108%,75.2%
Cc1ncc(C[n+]2csc(CCO)c2C)c(=O)[nH]1,-1.1%,6.1%,0%,-2.1%,-0.8%,99.6%,86.8%,98%,137%,102%
NC(=O)C[S+]([O-])C(c1ccccc1)c1ccccc1 (stereo not given) [Modafinil],4.1%,-20.4%,7.5%,-29.7%,14.2%,122%,91.7%,85%,117%,89.5%
C[C@@H]1NCCc2cc(O)c(O)cc21,6.9%,15.5%,8%,25.5%,29.5%,127%,120%,98.6%,119%,140%
CC(=O)CC1CCCCN1 (stereo not given),-18%,-11.2%,-14.7%,5.4%,6.7%,102%,90.9%,91.4%,69.4%,118%
COc1cc2ccc(=O)oc2c2ccoc12,-6.2%,10%,-22.1%,21.9%,27.8%,97.4%,120%,99.8%,101%,119%
Oc1ccc(Cl)cc1Cc1cc(Cl)ccc1O,24.2%,24.9%,18.8%,16.3%,18.9%,128%,107%,101%,10%,5.9%
CC(C)(N)Cc1ccccc1,-43.5%,-18.3%,9.3%,47.5%,1.6%,77.7%,98.6%,126%,132%,89.2%
CCN1C[C@]2(OC(=O)c3ccccc3NC(C)=O)CC[C@H](OC)[C@@]34[C@@H]2C[C@@H]([C@@H]13)[C@@]1(O)C[C@H](OC)[C@H]2C[C@@H]4[C@]1(O)[C@H]2OC,-25.4%,10.5%,-14.7%,15.5%,21.5%,88.3%,104%,104%,131%,154%
COc1ccc2c(c1)[C@]13CCCC[C@@H]1[C@H](C2)N(C)CC3,24.6%,9.8%,0%,15.9%,3.3%,119%,95.3%,101%,78.3%,70.2%
CC(=O)[C@H]1CC[C@H]2[C@@H]3CC[C@H]4C[C@H](O)CC[C@]4(C)[C@H]3C(=O)C[C@]12C,16.2%,15.5%,9.4%,17.2%,12.9%,138%,99.4%,124%,132%,99.3%
CC(=O)O[C@H]1C(=O)[C@@]2(C)[C@H]([C@H](OC(=O)c3ccccc3)[C@]3(O)C[C@H](O)C(C)=C1C3(C)C)[C@]1(OC(C)=O)CO[C@@H]1C[C@@H]2O [Baccatin III],-0.4%,3.2%,3.6%,11.3%,0.8%,111%,81.3%,83.6%,103%,120%
C[C@]12CC[C@H]3[C@@H](CC[C@]4(O)C[C@@H](O)CC[C@]34C=O)[C@@]1(O)CC[C@@H]2C1=CC(=O)OC1,-2.5%,2.5%,23.2%,7.1%,3%,43%,85.7%,61.3%,41.3%,15.5%
COC(C)(C)CCC[C@H](C)C/C=C/C(C)=C/C(=O)OC(C)C,22.7%,17%,8%,13.8%,19.7%,124%,140%,94%,96.3%,112%
[N-]=[N+]=CC(=O)OC[C@H](N)C(=O)O,9.7%,9%,-1.4%,14.6%,28%,99.8%,125%,115%,101%,95.2%
"CC1(C)C(=O)[C@@H]2O[C@@H]2[C@@]2(C)C1C[C@@H](O)[C@]1(C)C2CC[C@@]2(C)[C@H](c3ccoc3)OC(=O)C3OC321 (stereo partly drawn) [1,2alpha-EPOXYDEACETOXYDIHYDROGEDUNIN]",-27.9%,-3.3%,45.8%,1.3%,-4.8%,88.3%,92.2%,140%,100%,116%
CC(C)c1c(CN(C)C(C)Cc2ccccc2)n(C)n(-c2ccccc2)c1=O (stereo not given),1.8%,8.3%,2.9%,-2.1%,-3%,110%,117%,85.2%,134%,131%
NCCc1cc(O)c(O)cc1O,7.4%,-24.7%,11.8%,48.7%,4%,108%,68.3%,100%,84.8%,44.1%

# Source: the supplement of paper PMC10689618
